# Values from PubChem BioAssay AID720505 (Drosophila RNAi Screening Center, 2013)
# Purpose: 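Fly regulators or components of the CRAC channel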 (primary screen)
# Cell system: Drosophila S2R+ cells
# Knock-down reagent: long dsRNA against Drosophila genes
# Treatment: thapsigargin (2 µM) in calcium-free buffer to empty internal stores, then 2 mM calcium added back
# Read-out: 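Stores emptied by 2 µM thapsigargin without calcium, then 2 mM calcium re-added; fluo-4 fluorescence followed by FLIPR in 384-well plates, per-well averaged endpoint, raw; two screen passes, some wells retested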
# Reading the numbers: calcium signal: higher = more calcium entry after store depletion
# Rule for the call: 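Knock-downs counted as hits when calcium entry dropped relative to STIM1 positive and Rho1 negative controls present on each plate; roughly 1500 genes called, with reductions of differing size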
# Meaning of the calls: active = called as lowering calcium entry; inactive = not called
# In all, the deposit lists about 20,000 reagents; this is an unselected part of those with a known target gene and a result. Over the whole deposit, about 2,100 (10%) were called active. 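Raw plate signals without normalisation; calls rest on control-based scores that were not deposited; replicate 2 separates called from uncalled poorly.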 Unmarked entries are inactive. Names joined by + are all predicted targets of the reagent. Not given: the amount of reagent, the time to read-out.
Gene,DRSC id,"calcium signal, replicate 1","calcium signal, replicate 2"
msd1 (mitotic spindle density 1),DRSC08383,126,175
TSG101 (Tumor susceptibility gene 101),DRSC11098,101,158
RASSF8 (Ras association domain family member 8),DRSC15707,89.2,121
Or19a (Odorant receptor 19a),DRSC20684,222,91.2
TkR99D (Tachykinin-like receptor at 99D),DRSC16881,114,168
MFS10 (Major Facilitator Superfamily Transporter 10),DRSC19888,147,136
C1GalTA (Core 1 Galactosyltransferase A),DRSC03246,99.4,151
dod (dodo),DRSC20577,165,91.4
mod(mdg4) + pre-mod(mdg4)-Z + pre-mod(mdg4)-T,DRSC17001,93.6,105
CG8726,DRSC07250,133,112
Prosbeta2R1 (Proteasome beta2 subunit-related 1),DRSC18154,166,122
CG8299,DRSC07139,118,114
CG13654,DRSC14654,233,103
PpD6 (Protein phosphatase D6),DRSC00774,116,123
PpD6 (Protein phosphatase D6),DRSC23331,87.6,163
Mco3 (Multicopper oxidase 3),DRSC15926,280,157

Look-ups from the entries so far:
Mco3 (Multicopper oxidase 3) [DRSC15926], calcium signal, replicate 1: 280
Value for CG13654 [DRSC14654] under “calcium signal, replicate 1”: 233

The listing continues:
Gene,DRSC id,"calcium signal, replicate 1","calcium signal, replicate 2"
Hsp60C (Heat shock protein 60C),DRSC03036,141,108
CG17819,DRSC15279,178,192
eIF2Bdelta (eukaryotic translation initiation factor 2B subunit delta),DRSC04058,182,83.6
Pex3 (Peroxin 3),DRSC10731,123,100
Corp (Companion of reaper),DRSC17771,160,70.8
Psc (Posterior sex combs),DRSC07518,112,103
AOX1 (Aldehyde oxidase 1),DRSC15339,85.3,113
CG14331,DRSC14810,104,175
tapas,DRSC05950,134,117
PIG-F (Phosphatidylinositol glycan anchor biosynthesis class F),DRSC11069,124,149
rdo (reduced ocelli),DRSC02452,79.2,109
Pitslre,DRSC11874,64.6 (active),90.4
Pitslre,DRSC23346,74.7,114
ova (ovaries absent),DRSC02879,73.6,88.2
CG30427,DRSC04014,71.4,86.8
CG30427,DRSC04311,73.6,84.1
CG30427,DRSC04323,147,198
CG45105,DRSC15002,146,164
CG45105,DRSC15833,127,144
